PMC11077367
Results are given in words; binding and its absence hold for the method and conditions named. Binding seen in cells or lysates may run through a third protein. Some binding calls cover weakened binding; strength is not graded here.

Protein sequences, listed by entry. Tags and fused reporters are not part of them.
UniProt P17096: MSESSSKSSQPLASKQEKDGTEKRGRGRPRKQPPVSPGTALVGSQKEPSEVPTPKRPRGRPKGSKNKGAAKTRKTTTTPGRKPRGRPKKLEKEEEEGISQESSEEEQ

Target: T1, ETS1 (human (endogenous in KYSE30)) (UniProt P14921)
T1 sequence: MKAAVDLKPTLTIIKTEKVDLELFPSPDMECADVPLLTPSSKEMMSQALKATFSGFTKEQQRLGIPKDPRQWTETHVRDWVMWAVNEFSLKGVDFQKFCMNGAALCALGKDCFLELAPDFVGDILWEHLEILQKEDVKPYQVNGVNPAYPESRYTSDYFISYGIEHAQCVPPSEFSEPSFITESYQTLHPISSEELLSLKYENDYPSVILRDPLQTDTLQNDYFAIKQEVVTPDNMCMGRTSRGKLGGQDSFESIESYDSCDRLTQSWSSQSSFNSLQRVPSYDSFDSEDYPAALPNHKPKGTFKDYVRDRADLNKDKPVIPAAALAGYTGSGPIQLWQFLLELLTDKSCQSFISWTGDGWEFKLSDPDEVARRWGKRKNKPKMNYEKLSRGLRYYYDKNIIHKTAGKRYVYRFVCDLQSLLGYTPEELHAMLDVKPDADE
Experiment: co-IP; whole cell lysates of KYSE30 cells (NP40 lysis buffer), 800 ug lysate with 5 ug anti-ETS1 antibody or mouse IgG overnight at 4°C, Protein A/G agarose beads; HMGA1 detected by western blot

In the case of HMGA1 (from UniProt P17096 1-107), the binding is reported as “binds”.
